Hit rate of the full screen: of about 2,000 compounds, fewer than 10 were called active.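 How the source made its calls: active means growth inhibition of at least 75% in every replicate, which also brings the mean inhibition to 75% or more; inconclusive means mean inhibition 75% or more but some replicate under 75%; inactive means the rest.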 The list shows a part of the results.
Assay: growth inhibition of PfHsp90-dependent yeast, primary screen, antimalarial PfHsp90 inhibitor project, S. cerevisiae, BacTiter-Glo luminescence (AID 504594);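 further: 0% = DMSO neutral control wells and 100% = 20 µM radicicol control wells; higher value means stronger growth inhibition because the sign is flipped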
Settings: S. cerevisiae expressing PfHsp90, BacTiter-Glo growth, 48 h; at 9.4 µM; stronger effect = higher value

Growth inhibition, inactive:
CC12CCC(C(=O)Nc3ccccc3Br)(C/C1=N\O)C2(C)C (stereo not drawn) -9.28%, CC12CCC(C(=O)N3CCc4ccccc43)(CC1=O)C2(C)C (stereo not drawn) -7.62%, Cc1nc(C)c(C)nc1C 3.66%, CC(=O)N(C(C)=O)c1nc2nc(C)cc(C)n2n1 -7.83%, COc1cc2cc(C(=O)O)[nH]c2c(OC)c1OC 0.163%, O=C(CC(C(=O)O)c1c[nH]c2ccccc12)c1ccccc1 (stereo not drawn) 7.06%, Cc1oc2cc(O)ccc2c(=O)c1Oc1ccccc1Br -0.452%, CC(=O)NCCCCCCNC(C)=O 8.45%, CC(C)Cc1ccc(C(C)C(=O)Nc2ccc(O)cc2)cc1 (stereo not drawn) -4.11%, CC(C)OC(=O)CC1C(=O)NCCN1C(=S)NC(=O)c1ccccc1Cl (stereo not drawn) -7.62%, C(=C/c1nccc2c1[nH]c1ccccc12)/c1ccc2c(c1)OCO2 7.32%, OCC1CCN(Cc2cn(Cc3ccccc3)nc2-c2cc3ccccc3o2)CC1 -1.56%, CC1(C)Cc2ccccc2-c2n[nH]c(=S)n21 -11.6%, CC1CCCC(C)N1NC(=O)c1ccc(Cl)c(S(N)(=O)=O)c1 (stereo not drawn) 1.06%, Nc1nnc(-c2cccc(Cl)c2Cl)c(N)n1 -27.1%, COc1ccccc1CCn1cnc2c3cc(C)ccc3n(C)c2c1=O 21.2%, COc1ccc2c(c1)c(=O)oc1cc3occ(C(C)(C)C)c3cc12 1.48%, CC(=O)O[C@]1(C(C)=O)CC[C@H]2[C@@H]3C=C(C)C4=CC(=O)CC[C@]4(C)[C@H]3CC[C@@]21C 22.4%, CC(=O)/C=C/c1ccc(C)o1 1.43%, C=CCOC(=O)C1=C(C)NC(=O)NC1/C=C/c1ccccc1OC (stereo not drawn) 4.04%, O=C(/C=C/c1ccc2c(c1)OCCCO2)c1ccc2ccccc2c1O -2.27%, Nc1nnc(CSCc2ccc(Cl)cc2Cl)s1 13.1%, Cc1[nH]c2ccccc2c1C(=O)C(=O)NCc1ccco1 5.84%, Cc1ccc(S(=O)(=O)NC(C(=O)Oc2cc3oc(=O)cc(C)c3cc2Cl)C(C)C)cc1 (stereo not drawn) -8.73%, Cc1cnc(N)c2c(=O)oc3ccccc3c12 -7.04%, CCC(=O)Oc1ccc(C(=O)Nc2ccc([N+](=O)[O-])cc2)cc1 -1.57%, COCCN(CCOC)Cc1c(C)[nH]c2c(C)c(C)ccc2c1=O 8.21%, CS(=O)(=O)c1cccc(C(=O)Oc2ccccc2)c1 11.1%

Reference: PubChem BioAssay AID504594 (Broad Institute, 2011)
